PMC8532385
No constants are given. Whether binding was seen depends on the method and setting. Binding seen in cells or lysates may run through a third protein. Some binding calls cover weakened binding; strength is not graded here. Tags and fused reporters may be left off the sequences shown.

By UniProt entry, the sequences of proteins in these tests, tags left out.
UniProt O00429: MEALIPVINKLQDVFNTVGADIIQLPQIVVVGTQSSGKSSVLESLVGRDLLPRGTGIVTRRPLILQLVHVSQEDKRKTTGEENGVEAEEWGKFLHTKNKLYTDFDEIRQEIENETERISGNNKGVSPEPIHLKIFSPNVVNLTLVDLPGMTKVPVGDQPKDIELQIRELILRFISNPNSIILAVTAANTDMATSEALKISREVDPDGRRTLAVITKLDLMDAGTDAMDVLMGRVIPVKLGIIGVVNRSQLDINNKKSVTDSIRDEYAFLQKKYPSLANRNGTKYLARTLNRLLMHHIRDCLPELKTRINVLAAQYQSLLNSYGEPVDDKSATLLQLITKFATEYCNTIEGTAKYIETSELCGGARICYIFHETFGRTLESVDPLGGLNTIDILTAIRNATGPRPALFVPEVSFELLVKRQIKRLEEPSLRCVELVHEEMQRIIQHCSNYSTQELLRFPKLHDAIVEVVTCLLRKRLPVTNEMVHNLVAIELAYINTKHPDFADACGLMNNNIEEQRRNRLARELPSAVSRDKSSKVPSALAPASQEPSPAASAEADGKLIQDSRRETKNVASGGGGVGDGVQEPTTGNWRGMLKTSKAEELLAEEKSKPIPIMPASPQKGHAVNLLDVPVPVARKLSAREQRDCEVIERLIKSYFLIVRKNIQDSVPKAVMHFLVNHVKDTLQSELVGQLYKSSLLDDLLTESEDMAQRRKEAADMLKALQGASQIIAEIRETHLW

Legend:
[1] = molecular target: T1, MIEF2^Δ151-160-V5 (Drp1 binding-deficient mutant) (human) (UniProt Q96C03); assay: co-IP; 293T cells transfected with MIEF1-V5, MIEF1^Δ160-169-V5, MIEF2-V5 or MIEF2^Δ151-160-V5; anti-V5 beads; Western blot (Fig. 5b); crosslinking not mentioned
T1 sequence: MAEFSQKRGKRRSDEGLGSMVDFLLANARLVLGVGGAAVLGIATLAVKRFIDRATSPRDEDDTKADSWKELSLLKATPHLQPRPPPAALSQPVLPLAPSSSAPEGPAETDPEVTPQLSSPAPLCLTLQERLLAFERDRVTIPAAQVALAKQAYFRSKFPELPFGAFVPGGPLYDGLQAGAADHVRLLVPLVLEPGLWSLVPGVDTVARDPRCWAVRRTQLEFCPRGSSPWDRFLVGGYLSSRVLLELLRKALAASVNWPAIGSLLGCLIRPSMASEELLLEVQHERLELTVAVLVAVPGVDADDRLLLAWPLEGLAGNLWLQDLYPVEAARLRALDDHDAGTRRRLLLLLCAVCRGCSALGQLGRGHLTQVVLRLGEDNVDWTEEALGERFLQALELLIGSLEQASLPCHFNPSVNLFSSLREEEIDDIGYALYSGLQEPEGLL

[2] = molecular target: T1, MIEF2^Δ151-160-V5 (Drp1 binding-deficient mutant) (human); assay: co-IP; 293T cells transfected with V5-tagged MIEF1, MIEF2 or deletion mutants, in vivo crosslinked with 1% formaldehyde (10 min, room temperature), lysed in 1% NP-40 with sonication; anti-V5 agarose beads 2 h at room temperature; Western blot of endogenous partners
[3] = molecular target: T2, MIEF1^Δ345-380 (V5-tagged) (human) (UniProt Q9NQG6); assay: as above
T2 sequence: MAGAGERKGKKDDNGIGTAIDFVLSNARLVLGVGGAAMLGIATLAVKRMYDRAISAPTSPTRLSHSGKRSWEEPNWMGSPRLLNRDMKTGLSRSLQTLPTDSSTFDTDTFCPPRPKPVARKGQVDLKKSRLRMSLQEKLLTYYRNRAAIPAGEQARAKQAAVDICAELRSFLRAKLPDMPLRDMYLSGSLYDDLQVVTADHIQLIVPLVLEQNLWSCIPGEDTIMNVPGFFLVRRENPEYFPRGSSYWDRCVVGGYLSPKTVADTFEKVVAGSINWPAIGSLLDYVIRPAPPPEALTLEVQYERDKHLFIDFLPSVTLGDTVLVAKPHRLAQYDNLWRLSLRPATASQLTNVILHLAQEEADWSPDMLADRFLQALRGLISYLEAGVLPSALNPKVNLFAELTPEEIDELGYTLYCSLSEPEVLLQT

[4] = molecular target: T3, MIEF2^Δ235-250 (V5-tagged) (human) (UniProt Q96C03); assay: as above
T3 sequence: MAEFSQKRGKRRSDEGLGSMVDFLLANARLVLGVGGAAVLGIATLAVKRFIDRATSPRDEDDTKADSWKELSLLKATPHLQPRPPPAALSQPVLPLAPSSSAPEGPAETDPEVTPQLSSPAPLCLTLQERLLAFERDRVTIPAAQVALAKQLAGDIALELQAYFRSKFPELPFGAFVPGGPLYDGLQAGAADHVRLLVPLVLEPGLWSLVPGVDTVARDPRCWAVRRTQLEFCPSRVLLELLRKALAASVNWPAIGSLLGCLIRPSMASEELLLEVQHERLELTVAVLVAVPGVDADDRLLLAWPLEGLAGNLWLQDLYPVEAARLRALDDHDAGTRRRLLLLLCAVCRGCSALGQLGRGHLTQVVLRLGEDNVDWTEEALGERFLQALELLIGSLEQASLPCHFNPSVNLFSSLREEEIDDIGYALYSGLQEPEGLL

[5] = molecular target: T4, MIEF1^Δ296-337 (V5-tagged) (human) (UniProt Q9NQG6); assay: as above
T4 sequence: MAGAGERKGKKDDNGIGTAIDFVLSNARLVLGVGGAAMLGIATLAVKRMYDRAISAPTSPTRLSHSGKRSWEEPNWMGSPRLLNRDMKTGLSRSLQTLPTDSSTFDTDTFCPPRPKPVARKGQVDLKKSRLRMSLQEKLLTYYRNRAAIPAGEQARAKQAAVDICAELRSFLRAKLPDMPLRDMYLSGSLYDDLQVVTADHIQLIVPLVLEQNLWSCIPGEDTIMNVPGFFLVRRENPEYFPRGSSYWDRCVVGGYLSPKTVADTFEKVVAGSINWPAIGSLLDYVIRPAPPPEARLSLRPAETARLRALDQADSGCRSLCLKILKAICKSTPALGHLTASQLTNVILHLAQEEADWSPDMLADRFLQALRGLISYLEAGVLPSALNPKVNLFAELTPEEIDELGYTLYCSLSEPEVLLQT

[6] = molecular target: T5, MIEF1^Δ109-154 (V5-tagged, self-association-deficient mutant) (human) (UniProt Q9NQG6); assay: as above
T5 sequence: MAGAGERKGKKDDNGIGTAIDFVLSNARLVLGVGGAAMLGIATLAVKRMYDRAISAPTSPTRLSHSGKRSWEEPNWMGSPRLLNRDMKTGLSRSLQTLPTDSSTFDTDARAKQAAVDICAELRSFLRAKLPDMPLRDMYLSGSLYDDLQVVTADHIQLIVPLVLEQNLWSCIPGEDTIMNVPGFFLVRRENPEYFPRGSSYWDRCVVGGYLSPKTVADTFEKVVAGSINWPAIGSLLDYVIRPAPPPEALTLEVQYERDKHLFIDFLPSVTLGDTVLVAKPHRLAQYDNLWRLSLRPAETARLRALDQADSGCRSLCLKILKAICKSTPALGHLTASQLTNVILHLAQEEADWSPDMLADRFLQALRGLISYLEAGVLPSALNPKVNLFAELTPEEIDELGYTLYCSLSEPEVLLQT

binding [1]: no binding | binding [2]: no binding | binding [3]: no binding | binding [4]: no binding | binding [5]: no binding | binding [6]: binds
Substance: dynamin-related protein 1 (Drp1), endogenous (from UniProt O00429 1-736)
